Source: PubChem BioAssay AID2685 (National Center for Advancing Translational Sciences (NCATS), 2010)
The list shows a part of the results. These are further read-outs of the screen, such as a control signal, another cell line or another target. No call is given for them. Compounds called inactive in the main read-out are mostly missing here. The note in brackets gives the kind of curve behind each potency; many fits are weak.

Experiment: qHTS Assay for Lipid Storage Modulators in Drosophila S3 Cells;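 as to cell number change: cells counted by Cell Tracker Red CMTPX staining in the red channel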
Details: BODIPY lipid droplet fluorescence, 18-24 h; for cell number change: measured here: cell count max response, cells fed with added oleic acid
Method in brief: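 Drosophila S3 cells loaded with oleic acid (400 uM, as added) and compounds at several concentrations; lipid droplets imaged by 488-nm laser-scanning cytometry, 500–530 nm intensity and object ratio to cell channel. Percent activity normalized to 20 uM Triacsin C.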

[1] = measured here: lipid fluorescence (Fed channel) AC50, cells fed with added oleic acid
[2] = measured here: cell number channel AC50, cells fed with added oleic acid

Row | Structure (SMILES) | cell number change | AC50 [1] | AC50 [2]
1 | CCn1c(CC(=O)Nc2ccccc2F)nnc1SCC(=O)NC1CCCC1 | -7.89% |  | 
2 | Cn1c(N)c(C(=O)c2ccccc2)c(=O)n(C)c1=O | 21.7% | 6.51 µM [falling, single point] | 
3 | COc1ccc(NC2CCCN(C(=O)CN3CCOC3=O)C2)cc1 (configuration not stated) | -15.1% | 0.58 µM [rising, single point] | 
4 | C=C1C[C@H](O)[C@@H]2[C@H](OC(=O)[C@H]2C)[C@H]2[C@H](C)[C@@H](O)C[C@@H]12 | 10.2% | 1.46 µM [falling, full curve] | 
5 | Nc1nc[nH]c(=O)c1N=Cc1ccccc1 | -49.5% | 29.1 µM [falling, single point] | 29.1 µM [falling, single point]
6 | CC/C(=N\NC(=O)c1ccoc1C)c1ccc(C)o1 | 8.28% | 2.06 µM [rising, partial curve, poor fit] | 2.31 µM [rising, partial curve]
7 | COc1ccc(C(=O)N2CCCC2)cc1S(=O)(=O)N1CCC(C)CC1 |  | 0.82 µM [falling, full curve, poor fit] | 
8 | O=C(c1cc(F)c(F)cc1Cl)N1CCN(CCc2ccccc2)CC1 | 11.7% | 6.51 µM [rising, single point] | 
9 | COc1ccccc1N1CCN(C(=O)C(C)N(c2ccc(C)cc2)S(C)(=O)=O)CC1 (configuration not stated) | 11.4% | 9.2 µM [falling, partial curve, poor fit] | 
10 | N/C(=N\OC(=O)CCCOc1ccccc1)c1ccc(Br)cc1 | 42.7% |  | 14.6 µM [rising, single point]
11 | O=C1CC(NS(=O)(=O)c2cccnc2)CN1c1ccc(Cl)cc1 (configuration not stated) | 35.9% | 1.84 µM [rising, full curve] | 1.3 µM [rising, full curve]
12 | Cc1ccc(C(=O)N2CCCN(c3nc4cc5c(cc4cc3C#N)OCO5)CC2)cc1 | 17.8% | 0.58 µM [rising, single point] | 
13 | COc1cccc(CNC(=O)CN2C(=O)CCSc3ccc(S(=O)(=O)N4CCCC4)cc32)c1 | -3.23% | 25.9 µM [rising, single point] | 
14 | CCOc1ccc(OCC)c(NC(=O)CN(c2ccc(OC)cc2)S(=O)(=O)c2c(C)noc2C)c1 | -13.9% | 23.1 µM [rising, single point] | 
15 | COc1cc(OC)c(C2CC(=O)N3CN(C)CSC3=C2C#N)cc1OC (configuration not stated) | 22.8% | 2.06 µM [rising, partial curve] | 
16 | Cc1ccc(/C=C/C(=O)O)cc1S(=O)(=O)N1CCc2ccccc21 | -18.4% |  | 0.00651 µM [falling, full curve, poor fit]
17 | Cn1cc(S(=O)(=O)N2CCOCC2)cc1C(=O)NCc1ccccc1Cl | 19% |  | 
18 | COC1=C(N)C(=O)c2nc(-c3nc(C(=O)O)c(C)c(-c4ccc(OC)c(OC)c4O)c3N)ccc2C1=O | -59.8% | 2.06 µM [falling, full curve, poor fit] | 29.1 µM [falling, single point]

Row | Structure (SMILES) | cell number change | AC50 [1] | AC50 [2]
19 | S=C1NC2(CCCCC2)N=C1c1ccccc1 | -3.98% | 0.164 µM [rising, partial curve, poor fit] | 
20 | COc1ccc(CNCc2cccc(Oc3ccccc3)c2)cc1 | -72.2% | 18.4 µM [falling, single point] | 18.4 µM [falling, single point]
21 | O=C(Nc1cccc(Cl)c1)N1CCCC1 | 10.1% |  | 
22 | COc1cccc(CC(Cc2nc3ccccc3[nH]2)c2nc3ccccc3[nH]2)c1 (configuration not stated) | -24.6% |  | 
23 | C=CCN1C(=O)/C(=C/C(=O)OC)S/C1=N\NC(=O)c1ccccc1 | -37.9% | 29.1 µM [falling, single point] | 29.1 µM [falling, single point]
24 | COc1ccc(NC(=O)CSc2nc(C(C)C)nc3c2c(=O)n(C)c(=O)n3C)c(OC)c1 | -0.348% | 2.06 µM [falling, partial curve, poor fit] | 
25 | CSc1ccc(-c2cc(=O)c3ccccc3o2)cc1 |  | 23.1 µM [rising, single point] | 
26 | Cc1cc(CN2CCN(CC(=O)Nc3cc(C(F)(F)F)ccc3-n3cncn3)CC2)no1 | -0.275% | 0.092 µM [falling, full curve, poor fit] | 
27 | Cc1ccc(N2CCN(S(=O)(=O)c3ccc(-n4cnnn4)cc3)CC2)c(C)c1 |  | 0.366 µM [rising, full curve, poor fit] | 
28 | C[C@@H](NC(=O)c1nc[nH]c1C(=O)NCc1ccccc1)c1ccccc1 | 4.36% | 4.61 µM [falling, partial curve, poor fit] | 0.116 µM [falling, full curve, poor fit]
29 | CC1CCN(S(=O)(=O)c2ccc(NC(=O)c3ccco3)cc2)CC1 |  | 29.1 µM [falling, single point] | 
30 | Cc1ccnc(NC(c2ccsc2)c2ccc3ccc(C)nc3c2O)c1 (configuration not stated) | -0.919% | 0.82 µM [falling, single point] | 
31 | COc1ccc(CC2=CC(=O)c3ccccc3C2=O)cc1 | -58.1% | 14.6 µM [falling, partial curve] | 18.4 µM [falling, partial curve]
32 | O=c1[nH]c(=O)n([C@H]2C[C@H](O)[C@@H](CO)O2)cc1Br | 20.8% | 0.206 µM [rising, full curve] | 
33 | CC(=O)Nc1cc(NC(C)=O)cc(C(=O)OC(C)C(=O)Nc2ccc(S(=O)(=O)N3CCCC3)cc2)c1 (configuration not stated) |  | 29.1 µM [rising, single point] | 
34 | CCOC(=O)c1cccc(NC(=O)CCn2nnc3ccccc32)c1 | -9.45% | 25.9 µM [rising, single point] | 
35 | NC(=O)Nc1ccc(C(=O)OCC(=O)Nc2ccc([N+](=O)[O-])cc2C(F)(F)F)cc1 | -19% | 29.1 µM [falling, single point] | 3.26 µM [falling, single point]
36 | Cc1nc(SCC(=O)Nc2nc3ccccc3s2)c(C#N)c(C)c1C | -69.9% |  | 29.1 µM [falling, single point]

Quoted at random: 2 compounds from above
Row | Structure (SMILES) | cell number change | AC50 [1] | AC50 [2]
28 | C[C@@H](NC(=O)c1nc[nH]c1C(=O)NCc1ccccc1)c1ccccc1 | 4.36% | 4.61 µM [falling, partial curve, poor fit] | 0.116 µM [falling, full curve, poor fit]
36 | Cc1nc(SCC(=O)Nc2nc3ccccc3s2)c(C#N)c(C)c1C | -69.9% |  | 29.1 µM [falling, single point]
